In the data set the target is cardiac troponin I (cTnI) (UniProt P19429). In words: SERS aptamer sandwich assay on waveguide. Particulars: 1 ng/mL cTnI stock (25 uL mixed with 50 uL reporter NPs), sandwich with immobilized N1, no cTnI-free control described; 5'-thiol-spacer 18; printed strand starts with TTTTT; aptamer-AuNPs resuspended in PBS; cTnI incubated 30 min with reporter NPs, then 1 h on waveguide, rinsed with buffer; pH and temperature not stated; commercial protein; label: 36 nm AuNP with MGITC Raman reporter; single-stranded DNA.

The exact form of at least one protein or probe is not confirmed.

Take “TTTTTCGCATGCCAAACGTTGCCTCATAGTTCCCTCCCCGTGTCC [secondary (reporter) aptamer]”: the binding result was “binds”.

These data come from publication PMC11643483, “Chip-Scale Aptamer Sandwich Assay Using Optical Waveguide-Assisted Surface-Enhanced Raman Spectroscopy”.
